{
  "sequences": {"note": "Sequences of proteins named here, by UniProt entry; tags and fusion partners are left off. Residues count along the entry.", "UniProt P02461, residues 154-1221": "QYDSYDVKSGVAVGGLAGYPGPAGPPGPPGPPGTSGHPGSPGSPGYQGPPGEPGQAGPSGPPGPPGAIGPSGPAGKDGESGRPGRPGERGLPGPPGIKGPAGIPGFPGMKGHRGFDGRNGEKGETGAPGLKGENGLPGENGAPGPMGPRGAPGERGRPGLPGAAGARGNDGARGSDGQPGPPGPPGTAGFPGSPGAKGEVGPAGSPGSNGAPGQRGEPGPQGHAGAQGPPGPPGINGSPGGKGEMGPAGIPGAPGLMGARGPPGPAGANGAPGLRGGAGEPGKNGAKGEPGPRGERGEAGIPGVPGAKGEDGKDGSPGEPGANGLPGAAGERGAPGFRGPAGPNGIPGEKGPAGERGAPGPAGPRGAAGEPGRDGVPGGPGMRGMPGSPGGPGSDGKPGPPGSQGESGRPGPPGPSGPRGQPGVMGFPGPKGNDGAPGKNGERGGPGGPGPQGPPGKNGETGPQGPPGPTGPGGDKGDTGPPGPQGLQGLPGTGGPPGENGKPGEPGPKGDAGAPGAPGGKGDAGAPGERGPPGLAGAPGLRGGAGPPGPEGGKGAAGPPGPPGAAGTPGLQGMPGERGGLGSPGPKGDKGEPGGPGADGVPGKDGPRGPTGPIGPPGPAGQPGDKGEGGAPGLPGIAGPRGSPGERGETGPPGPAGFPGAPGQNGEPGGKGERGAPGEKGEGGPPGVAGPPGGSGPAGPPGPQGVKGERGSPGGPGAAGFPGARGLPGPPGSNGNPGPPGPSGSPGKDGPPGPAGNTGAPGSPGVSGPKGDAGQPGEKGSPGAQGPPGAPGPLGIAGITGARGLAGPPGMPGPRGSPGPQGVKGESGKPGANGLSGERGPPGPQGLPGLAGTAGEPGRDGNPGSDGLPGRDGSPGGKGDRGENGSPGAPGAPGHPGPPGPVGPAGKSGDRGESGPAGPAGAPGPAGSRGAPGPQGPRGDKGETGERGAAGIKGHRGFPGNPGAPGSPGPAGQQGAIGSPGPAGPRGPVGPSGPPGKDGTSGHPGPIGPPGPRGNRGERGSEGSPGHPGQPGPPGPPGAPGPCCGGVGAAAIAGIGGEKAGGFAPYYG", "UniProt P04275, residues 764-2813": "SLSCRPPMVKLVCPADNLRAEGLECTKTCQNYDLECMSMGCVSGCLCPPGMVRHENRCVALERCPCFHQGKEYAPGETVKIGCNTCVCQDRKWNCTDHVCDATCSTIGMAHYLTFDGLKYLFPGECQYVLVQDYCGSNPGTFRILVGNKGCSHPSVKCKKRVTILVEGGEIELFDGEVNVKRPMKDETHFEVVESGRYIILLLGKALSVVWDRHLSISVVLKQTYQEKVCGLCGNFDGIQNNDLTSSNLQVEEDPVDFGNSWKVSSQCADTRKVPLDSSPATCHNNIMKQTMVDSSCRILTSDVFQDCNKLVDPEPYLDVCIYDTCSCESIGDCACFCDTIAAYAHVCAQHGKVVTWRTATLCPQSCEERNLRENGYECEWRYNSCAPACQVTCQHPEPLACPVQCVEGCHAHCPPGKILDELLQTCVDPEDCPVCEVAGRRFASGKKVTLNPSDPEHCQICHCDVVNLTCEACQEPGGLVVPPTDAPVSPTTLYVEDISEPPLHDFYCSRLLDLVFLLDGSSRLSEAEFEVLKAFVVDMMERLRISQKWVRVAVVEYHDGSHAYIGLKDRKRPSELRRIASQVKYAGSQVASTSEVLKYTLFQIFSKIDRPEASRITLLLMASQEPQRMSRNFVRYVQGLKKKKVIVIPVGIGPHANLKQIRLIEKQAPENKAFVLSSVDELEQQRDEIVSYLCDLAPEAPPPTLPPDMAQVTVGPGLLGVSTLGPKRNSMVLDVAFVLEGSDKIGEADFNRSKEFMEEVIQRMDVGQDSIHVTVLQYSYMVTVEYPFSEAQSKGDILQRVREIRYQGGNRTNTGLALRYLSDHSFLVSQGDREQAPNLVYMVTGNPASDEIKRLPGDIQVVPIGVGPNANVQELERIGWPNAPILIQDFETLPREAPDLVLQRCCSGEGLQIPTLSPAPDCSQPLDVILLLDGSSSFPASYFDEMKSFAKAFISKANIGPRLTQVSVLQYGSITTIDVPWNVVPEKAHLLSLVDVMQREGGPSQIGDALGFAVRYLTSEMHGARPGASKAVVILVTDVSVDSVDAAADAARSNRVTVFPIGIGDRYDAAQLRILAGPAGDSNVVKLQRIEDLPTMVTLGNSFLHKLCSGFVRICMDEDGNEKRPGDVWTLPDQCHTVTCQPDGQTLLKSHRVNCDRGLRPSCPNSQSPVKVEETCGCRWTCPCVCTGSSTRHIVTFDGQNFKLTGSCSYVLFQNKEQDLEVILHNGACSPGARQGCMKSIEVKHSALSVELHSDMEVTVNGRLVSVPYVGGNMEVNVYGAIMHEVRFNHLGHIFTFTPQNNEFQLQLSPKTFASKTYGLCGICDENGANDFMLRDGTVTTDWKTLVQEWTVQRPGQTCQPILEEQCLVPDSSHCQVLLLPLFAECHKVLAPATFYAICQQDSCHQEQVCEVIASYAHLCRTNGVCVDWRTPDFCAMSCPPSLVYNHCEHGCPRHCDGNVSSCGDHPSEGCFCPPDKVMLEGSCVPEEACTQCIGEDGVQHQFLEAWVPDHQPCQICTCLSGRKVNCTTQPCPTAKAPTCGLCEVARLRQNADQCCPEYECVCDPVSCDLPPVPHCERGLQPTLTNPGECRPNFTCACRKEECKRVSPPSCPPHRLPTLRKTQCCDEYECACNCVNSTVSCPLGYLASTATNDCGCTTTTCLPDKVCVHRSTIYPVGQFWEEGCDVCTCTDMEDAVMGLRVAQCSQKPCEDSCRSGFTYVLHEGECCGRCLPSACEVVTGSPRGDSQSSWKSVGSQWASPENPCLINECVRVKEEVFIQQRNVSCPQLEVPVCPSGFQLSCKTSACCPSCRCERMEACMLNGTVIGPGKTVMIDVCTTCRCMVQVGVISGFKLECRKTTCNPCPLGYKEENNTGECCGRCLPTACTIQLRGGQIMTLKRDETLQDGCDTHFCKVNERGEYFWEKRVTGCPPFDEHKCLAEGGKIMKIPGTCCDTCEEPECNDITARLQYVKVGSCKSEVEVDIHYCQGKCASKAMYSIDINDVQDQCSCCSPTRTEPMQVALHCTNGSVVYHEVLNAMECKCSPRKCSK"},
  "source": "patent US20200157186A1",
  "biological_target": "human type III collagen (human) (UniProt P02461)",
  "test": "plate coated with human type III collagen, bound VWF detected with polyclonal anti-VWF antibodies; VWF antigen to collagen binding ratio",
  "note": "No constants are given. Whether binding was seen depends on the method and setting. Some entries that bind do so weakly or less than the wild type.",
  "data": [
    {"substance": "VWF derived from normal human plasma (from UniProt P04275 764-2813)", "values": [
      {"measurement": "binding", "result": "binds"}
    ]}
  ]
}
